Measurements: the supplement of paper PMC10849652
The other results are listed elsewhere or left out.

Chains of the proteins cited; added tags and fusions are not shown. Lines headed by an entry give the natural chain unless they say otherwise; changes in a name come on top.
UniProt Q9H2T7: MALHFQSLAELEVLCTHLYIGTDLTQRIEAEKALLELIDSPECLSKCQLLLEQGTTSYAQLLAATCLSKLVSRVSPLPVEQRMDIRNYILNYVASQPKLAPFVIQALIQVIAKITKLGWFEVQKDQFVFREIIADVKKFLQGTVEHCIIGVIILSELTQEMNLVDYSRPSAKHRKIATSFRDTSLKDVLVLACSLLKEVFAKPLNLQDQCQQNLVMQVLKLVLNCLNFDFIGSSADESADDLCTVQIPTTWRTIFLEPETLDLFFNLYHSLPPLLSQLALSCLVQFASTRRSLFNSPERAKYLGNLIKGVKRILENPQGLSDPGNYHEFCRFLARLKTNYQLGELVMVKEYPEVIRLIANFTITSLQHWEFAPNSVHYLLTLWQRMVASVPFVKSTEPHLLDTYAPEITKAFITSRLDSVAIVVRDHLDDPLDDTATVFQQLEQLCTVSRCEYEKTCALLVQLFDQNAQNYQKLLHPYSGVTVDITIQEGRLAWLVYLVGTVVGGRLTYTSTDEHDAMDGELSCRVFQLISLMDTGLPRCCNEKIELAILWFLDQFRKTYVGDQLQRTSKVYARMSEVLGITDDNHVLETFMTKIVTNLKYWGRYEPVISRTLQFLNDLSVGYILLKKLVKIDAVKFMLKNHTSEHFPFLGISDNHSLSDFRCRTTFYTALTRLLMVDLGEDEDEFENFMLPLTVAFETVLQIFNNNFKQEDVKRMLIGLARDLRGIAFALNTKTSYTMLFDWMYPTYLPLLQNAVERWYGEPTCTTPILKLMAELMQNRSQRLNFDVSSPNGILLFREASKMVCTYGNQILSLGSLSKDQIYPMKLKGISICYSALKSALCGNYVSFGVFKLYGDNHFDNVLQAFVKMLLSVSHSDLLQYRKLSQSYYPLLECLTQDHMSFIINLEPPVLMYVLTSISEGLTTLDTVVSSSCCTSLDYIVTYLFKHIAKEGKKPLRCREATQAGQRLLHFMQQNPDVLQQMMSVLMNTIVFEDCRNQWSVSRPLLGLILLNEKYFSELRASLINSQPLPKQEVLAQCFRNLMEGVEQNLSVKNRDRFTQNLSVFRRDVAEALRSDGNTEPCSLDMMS
UniProt P62491: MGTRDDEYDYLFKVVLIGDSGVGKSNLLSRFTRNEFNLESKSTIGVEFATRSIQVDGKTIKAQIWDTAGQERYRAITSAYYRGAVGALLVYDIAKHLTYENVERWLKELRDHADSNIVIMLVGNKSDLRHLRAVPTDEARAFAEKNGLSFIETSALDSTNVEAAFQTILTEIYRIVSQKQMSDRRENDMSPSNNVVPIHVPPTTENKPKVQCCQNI
UniProt O14966: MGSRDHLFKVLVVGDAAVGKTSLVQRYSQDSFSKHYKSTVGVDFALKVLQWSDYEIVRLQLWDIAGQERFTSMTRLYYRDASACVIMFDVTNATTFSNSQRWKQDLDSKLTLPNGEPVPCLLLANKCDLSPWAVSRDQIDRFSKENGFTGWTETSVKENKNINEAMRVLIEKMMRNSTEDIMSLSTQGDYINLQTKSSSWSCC
UniProt Q15291, whole entry, looked up: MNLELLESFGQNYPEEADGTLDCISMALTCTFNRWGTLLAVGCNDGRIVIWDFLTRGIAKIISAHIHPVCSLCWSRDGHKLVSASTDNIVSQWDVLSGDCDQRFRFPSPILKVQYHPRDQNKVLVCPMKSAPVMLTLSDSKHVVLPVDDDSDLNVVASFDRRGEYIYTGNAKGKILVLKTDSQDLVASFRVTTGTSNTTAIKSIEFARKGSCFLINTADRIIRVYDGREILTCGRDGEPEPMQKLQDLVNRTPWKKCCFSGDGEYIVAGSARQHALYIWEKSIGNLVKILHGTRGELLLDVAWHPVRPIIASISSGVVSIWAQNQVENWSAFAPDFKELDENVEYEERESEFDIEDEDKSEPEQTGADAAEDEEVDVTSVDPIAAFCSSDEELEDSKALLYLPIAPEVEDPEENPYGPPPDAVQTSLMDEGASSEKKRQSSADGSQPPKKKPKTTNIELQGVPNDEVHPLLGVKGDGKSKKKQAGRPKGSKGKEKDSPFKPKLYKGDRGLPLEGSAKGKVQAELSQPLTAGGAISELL
UniProt Q13636: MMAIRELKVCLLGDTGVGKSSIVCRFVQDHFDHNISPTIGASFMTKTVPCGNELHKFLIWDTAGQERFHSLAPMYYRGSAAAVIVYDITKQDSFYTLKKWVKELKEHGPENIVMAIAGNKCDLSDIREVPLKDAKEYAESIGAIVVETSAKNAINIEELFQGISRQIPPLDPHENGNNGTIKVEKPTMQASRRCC
UniProt Q9ULC3: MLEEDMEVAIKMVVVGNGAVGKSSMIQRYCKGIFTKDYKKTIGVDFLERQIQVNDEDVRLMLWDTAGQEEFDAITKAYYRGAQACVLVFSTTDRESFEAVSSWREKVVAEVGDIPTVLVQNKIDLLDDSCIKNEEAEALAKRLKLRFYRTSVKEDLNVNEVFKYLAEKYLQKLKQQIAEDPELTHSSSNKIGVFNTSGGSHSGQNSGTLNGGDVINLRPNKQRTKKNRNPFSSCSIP
UniProt P98179: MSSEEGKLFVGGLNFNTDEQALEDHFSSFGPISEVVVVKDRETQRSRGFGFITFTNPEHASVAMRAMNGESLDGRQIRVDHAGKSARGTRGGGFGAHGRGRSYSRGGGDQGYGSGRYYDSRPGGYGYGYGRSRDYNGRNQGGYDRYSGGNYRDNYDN
UniProt Q9Y3P9: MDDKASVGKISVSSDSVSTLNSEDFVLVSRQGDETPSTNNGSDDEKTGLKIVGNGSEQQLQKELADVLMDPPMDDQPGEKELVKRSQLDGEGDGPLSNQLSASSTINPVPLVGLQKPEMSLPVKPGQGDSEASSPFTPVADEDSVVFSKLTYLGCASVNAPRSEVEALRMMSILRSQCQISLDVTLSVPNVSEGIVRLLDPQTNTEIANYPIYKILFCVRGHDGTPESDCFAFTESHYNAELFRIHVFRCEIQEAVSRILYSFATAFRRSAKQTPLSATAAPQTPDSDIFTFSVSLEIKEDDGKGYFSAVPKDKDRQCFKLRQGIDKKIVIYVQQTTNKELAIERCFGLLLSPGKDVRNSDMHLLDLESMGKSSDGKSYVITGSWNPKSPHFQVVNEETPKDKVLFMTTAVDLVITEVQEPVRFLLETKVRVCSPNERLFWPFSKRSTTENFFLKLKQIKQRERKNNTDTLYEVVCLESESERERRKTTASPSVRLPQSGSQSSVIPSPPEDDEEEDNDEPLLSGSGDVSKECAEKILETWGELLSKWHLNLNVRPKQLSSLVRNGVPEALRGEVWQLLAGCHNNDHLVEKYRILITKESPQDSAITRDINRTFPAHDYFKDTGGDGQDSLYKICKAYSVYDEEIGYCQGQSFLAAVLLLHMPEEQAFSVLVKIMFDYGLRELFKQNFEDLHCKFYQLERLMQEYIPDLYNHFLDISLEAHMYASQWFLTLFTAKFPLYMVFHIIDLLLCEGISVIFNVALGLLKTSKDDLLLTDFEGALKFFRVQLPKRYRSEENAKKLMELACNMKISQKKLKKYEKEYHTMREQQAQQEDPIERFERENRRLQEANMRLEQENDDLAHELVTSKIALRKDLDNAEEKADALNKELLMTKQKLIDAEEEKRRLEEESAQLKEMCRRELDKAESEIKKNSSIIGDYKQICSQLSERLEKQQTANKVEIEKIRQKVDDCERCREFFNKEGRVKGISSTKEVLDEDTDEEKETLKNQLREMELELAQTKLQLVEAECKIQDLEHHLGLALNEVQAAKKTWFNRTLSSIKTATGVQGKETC
UniProt Q7Z6M1: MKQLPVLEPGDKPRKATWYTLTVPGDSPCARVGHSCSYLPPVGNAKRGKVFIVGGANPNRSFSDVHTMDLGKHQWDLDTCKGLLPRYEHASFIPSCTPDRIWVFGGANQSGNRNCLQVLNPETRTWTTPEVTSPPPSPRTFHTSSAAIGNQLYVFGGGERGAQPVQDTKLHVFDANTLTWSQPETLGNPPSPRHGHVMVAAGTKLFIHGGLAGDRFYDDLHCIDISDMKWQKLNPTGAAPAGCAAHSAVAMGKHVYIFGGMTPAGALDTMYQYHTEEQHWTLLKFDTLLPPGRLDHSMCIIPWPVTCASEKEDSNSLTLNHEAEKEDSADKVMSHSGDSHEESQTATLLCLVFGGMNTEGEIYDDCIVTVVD
UniProt Q13637: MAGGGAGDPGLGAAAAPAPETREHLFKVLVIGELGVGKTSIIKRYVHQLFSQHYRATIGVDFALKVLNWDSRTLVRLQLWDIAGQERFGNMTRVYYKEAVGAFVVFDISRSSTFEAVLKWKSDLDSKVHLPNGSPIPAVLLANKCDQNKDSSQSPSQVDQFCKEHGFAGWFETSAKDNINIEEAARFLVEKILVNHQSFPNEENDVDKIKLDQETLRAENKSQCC
UniProt Q9UL25: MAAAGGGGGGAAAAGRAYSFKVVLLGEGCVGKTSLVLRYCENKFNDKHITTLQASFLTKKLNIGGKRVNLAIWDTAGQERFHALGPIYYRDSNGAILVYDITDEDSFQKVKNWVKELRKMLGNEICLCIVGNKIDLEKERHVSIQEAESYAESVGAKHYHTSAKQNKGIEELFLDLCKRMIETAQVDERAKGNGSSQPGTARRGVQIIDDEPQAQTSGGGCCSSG
UniProt P20339: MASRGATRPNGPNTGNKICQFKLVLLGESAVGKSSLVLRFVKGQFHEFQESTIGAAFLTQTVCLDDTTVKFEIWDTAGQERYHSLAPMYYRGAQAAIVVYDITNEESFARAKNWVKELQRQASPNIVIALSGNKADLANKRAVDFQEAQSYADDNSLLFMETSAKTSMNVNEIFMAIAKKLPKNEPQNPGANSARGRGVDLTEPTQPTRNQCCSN
UniProt Q9UL26: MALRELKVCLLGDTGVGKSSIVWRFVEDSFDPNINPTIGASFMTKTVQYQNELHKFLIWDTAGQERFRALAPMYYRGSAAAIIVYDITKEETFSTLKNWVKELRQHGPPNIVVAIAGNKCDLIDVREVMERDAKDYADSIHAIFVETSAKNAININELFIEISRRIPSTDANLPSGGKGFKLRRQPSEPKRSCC
UniProt O60671: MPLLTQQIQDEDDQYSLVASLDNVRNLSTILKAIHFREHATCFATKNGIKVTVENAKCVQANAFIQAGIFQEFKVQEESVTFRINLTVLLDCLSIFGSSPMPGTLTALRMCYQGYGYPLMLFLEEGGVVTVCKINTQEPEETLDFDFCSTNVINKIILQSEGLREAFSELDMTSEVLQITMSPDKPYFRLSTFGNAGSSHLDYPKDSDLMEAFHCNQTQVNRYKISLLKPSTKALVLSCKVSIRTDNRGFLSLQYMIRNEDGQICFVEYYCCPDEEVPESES
UniProt Q9NRW1: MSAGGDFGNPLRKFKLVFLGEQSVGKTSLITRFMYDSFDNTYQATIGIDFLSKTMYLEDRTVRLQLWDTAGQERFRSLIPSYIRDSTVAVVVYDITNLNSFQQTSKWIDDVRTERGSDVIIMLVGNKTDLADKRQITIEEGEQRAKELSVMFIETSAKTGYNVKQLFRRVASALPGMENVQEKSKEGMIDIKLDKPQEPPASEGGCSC
UniProt Q09028, whole entry, looked up: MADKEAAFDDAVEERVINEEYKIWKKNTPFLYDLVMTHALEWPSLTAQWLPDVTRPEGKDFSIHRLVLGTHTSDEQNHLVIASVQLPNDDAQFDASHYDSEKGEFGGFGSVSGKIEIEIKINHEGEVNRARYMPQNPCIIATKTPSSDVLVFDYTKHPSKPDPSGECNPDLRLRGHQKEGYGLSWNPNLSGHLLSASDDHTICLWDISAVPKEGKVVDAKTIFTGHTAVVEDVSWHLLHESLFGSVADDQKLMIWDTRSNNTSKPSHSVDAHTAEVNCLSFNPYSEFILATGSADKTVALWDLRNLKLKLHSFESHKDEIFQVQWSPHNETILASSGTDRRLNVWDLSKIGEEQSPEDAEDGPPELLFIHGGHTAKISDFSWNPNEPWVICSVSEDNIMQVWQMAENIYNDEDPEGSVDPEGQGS
UniProt O43251: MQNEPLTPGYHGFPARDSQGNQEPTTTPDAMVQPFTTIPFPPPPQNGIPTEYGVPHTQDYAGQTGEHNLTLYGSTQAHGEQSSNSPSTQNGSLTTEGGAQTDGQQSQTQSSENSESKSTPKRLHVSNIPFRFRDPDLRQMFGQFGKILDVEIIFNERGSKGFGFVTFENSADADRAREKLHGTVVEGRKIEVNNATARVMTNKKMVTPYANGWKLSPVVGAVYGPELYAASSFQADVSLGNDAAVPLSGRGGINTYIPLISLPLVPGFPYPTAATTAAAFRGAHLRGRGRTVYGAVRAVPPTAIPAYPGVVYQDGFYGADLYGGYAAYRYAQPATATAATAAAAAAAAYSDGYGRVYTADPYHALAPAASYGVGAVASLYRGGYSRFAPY
UniProt P11234: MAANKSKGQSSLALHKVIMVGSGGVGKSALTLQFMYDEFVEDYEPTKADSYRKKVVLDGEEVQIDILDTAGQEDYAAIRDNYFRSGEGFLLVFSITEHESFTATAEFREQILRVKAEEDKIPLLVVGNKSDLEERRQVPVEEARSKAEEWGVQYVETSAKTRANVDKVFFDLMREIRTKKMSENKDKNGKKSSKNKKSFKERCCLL

Assays:
Assay in all cases: log2 fold change, soluble protein after heating vs DMSO (PISA); higher = thermal stabilisation; K562 cells, 10 uM, 30 min; active = over 0.2 and 3.5 SD of the protein, either way, in both replicates (recomputed)
saracatinib = compound: CN1CCN(CCOc2cc(OC3CCOCC3)c3c(Nc4c(Cl)ccc5c4OCO5)ncnc3c2)CC1 [saracatinib]
Summary of the method: (§1)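 Soluble protein was defined as the supernatant after 21,000xg for 90 min. It came from K562 cells at 2×10^6 cells/mL given 10 μM compound for 30 min, heated in aliquots for 3 min across 48°C-58°C, pooled, and extracted in PBS with 0.5% NP-40 at 4°C, and was quantified by TMTpro 16plex LC-MS/MS with equalised channel sums. Thermal stability against control samples, from duplicates, is reported as log2 fold change.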

sotrastaurin = compound: CN1CCN(c2nc(C3=C(c4c[nH]c5ccccc45)C(=O)NC3=O)c3ccccc3n2)CC1 [sotrastaurin]
Summary of the method: as §1

alvocidib = compound: CN1CC[C@H](c2c(O)cc(O)c3c(=O)cc(-c4ccccc4Cl)oc23)[C@H](O)C1 [alvocidib]
Summary of the method: as §1

Tubastatin A = compound: CN1CCc2c(c3ccccc3n2Cc2ccc(C(=O)NO)cc2)C1 [Tubastatin A]
Summary of the method: as §1

[1] = compound: CNC(=O)C1=CC=CC=C1NC2=NC(=NC=C2Cl)NC3=C(C=C(C=C3)N4CCOCC4)OC
Summary of the method: as §1

defactinib = compound: CNC(=O)c1ccc(Nc2ncc(C(F)(F)F)c(NCc3nccnc3N(C)S(C)(=O)=O)n2)cc1 [defactinib]
Summary of the method: as §1

rucaparib = compound: CNCc1ccc(-c2[nH]c3cc(F)cc4c3c2CCNC4=O)cc1 [rucaparib]
Summary of the method: as §1

[2] = compound: CNc1nc(-c2ccc3c(N)n[nH]c3c2)cc(N2C[C@@H](C(=O)NC3CCCCC3)CC[C@H]2C)n1
Summary of the method: as §1

encorafenib = compound: COC(=O)N[C@@H](C)CNc1nccc(-c2cn(C(C)C)nc2-c2cc(Cl)cc(NS(C)(=O)=O)c2F)n1 [encorafenib]
Summary of the method: as §1

[3] = compound: COC(=O)[C@H](CCSC)NC(=O)C1=C(C=C(C=C1)NC[C@H](CS)N)C2=CC=CC=C2
Summary of the method: as §1

Measured: log2 fold change

RANBP17 (UniProt Q9H2T7)
inactive: saracatinib -0.064 | sotrastaurin -0.092 | alvocidib -0.211 | Tubastatin A 0.011 | [1] -0.032 | defactinib -0.042 | rucaparib 0.02 | [2] 0.026 | encorafenib 0.042 | [3] 0.086

RACK1 (UniProt D6RHH4)
inactive: saracatinib -0.28 | sotrastaurin -0.079 | alvocidib 0.165 | Tubastatin A 0.077 | [1] -0.017 | defactinib -0.019 | rucaparib 0.302 | [2] -0.334 | encorafenib -0.095 | [3] -0.06

RAB11A (UniProt P62491)
inactive: saracatinib 0.027 | sotrastaurin 0.05 | alvocidib -0.01 | Tubastatin A 0 | [1] -0.061 | defactinib 0.016 | rucaparib 0.022 | [2] -0.118 | encorafenib -0.04 | [3] 0.104

RAB14 (UniProt P61106)
inactive: saracatinib 0.049 | sotrastaurin 0.045 | alvocidib -0.004 | Tubastatin A -0.02 | [1] -0.02 | defactinib -0.006 | rucaparib -0.027 | [2] -0.026 | encorafenib -0.009 | [3] -0.018

RAB29 (UniProt O14966)
inactive: saracatinib 0.105 | sotrastaurin 0.082 | alvocidib -0.041 | Tubastatin A -0.067 | [1] 0.001 | defactinib -0.01 | rucaparib 0.012 | [2] 0.007 | encorafenib -0.01 | [3] -0.054

RBBP5 (UniProt Q15291)
inactive: saracatinib 0.035 | sotrastaurin 0 | alvocidib 0.014 | Tubastatin A 0.006 | [1] -0.025 | defactinib -0.01 | rucaparib -0.028 | [2] -0.1 | encorafenib 0.008 | [3] 0.042

RABL6 (UniProt Q3YEC7)
inactive: saracatinib 0.036 | sotrastaurin 0.001 | alvocidib -0.003 | Tubastatin A -0.025 | [1] -0.066 | defactinib -0.017 | rucaparib 0.026 | [2] -0.034 | encorafenib -0.023 | [3] 0.015

RAB31 (UniProt Q13636)
inactive: saracatinib 0.063 | sotrastaurin 0.034 | alvocidib 0.029 | Tubastatin A -0.029 | [1] -0.018 | defactinib -0.003 | rucaparib -0.034 | [2] -0.042 | encorafenib 0.002 | [3] -0.017

RAB23 (UniProt Q9ULC3)
inactive: saracatinib 0.011 | sotrastaurin 0.05 | alvocidib -0.009 | Tubastatin A -0.084 | [1] -0.055 | defactinib -0.015 | rucaparib -0.008 | [2] 0.027 | encorafenib -0.007 | [3] 0

RACK1 (UniProt D6RF23)
inactive: saracatinib -0.125 | sotrastaurin -0.029 | alvocidib 0.223 | Tubastatin A -0.05 | [1] -0.081 | defactinib 0.111 | rucaparib -0.15 | [2] -0.177 | encorafenib 0.095 | [3] -0.044

RAP2B (UniProt P61225)
inactive: saracatinib 0.068 | sotrastaurin -0.037 | alvocidib 0.012 | Tubastatin A 0.015 | [1] -0.045 | defactinib -0.051 | rucaparib 0.014 | [2] -0.018 | encorafenib -0.044 | [3] -0.002

RBM3 (UniProt P98179)
inactive: saracatinib -0.07 | sotrastaurin 0.076 | alvocidib 0.106 | Tubastatin A 0.022 | [1] -0.018 | defactinib 0.273 | rucaparib 0.259 | [2] 0.034 | encorafenib 0.03 | [3] 0.024

RAB6A isoform 2 (UniProt P20340)
inactive: saracatinib 0.026 | sotrastaurin 0.043 | alvocidib 0.007 | Tubastatin A -0.034 | [1] -0.003 | defactinib -0.015 | rucaparib 0.059 | [2] -0.038 | encorafenib -0.108 | [3] -0.004

RABGAP1 (UniProt Q9Y3P9)
inactive: saracatinib 0.044 | sotrastaurin -0.011 | alvocidib -0.015 | Tubastatin A -0.033 | [1] -0.055 | defactinib -0.025 | rucaparib 0.003 | [2] -0.012 | encorafenib 0.053 | [3] -0.009

RABEPK (UniProt Q7Z6M1)
inactive: saracatinib 0.048 | sotrastaurin 0.009 | alvocidib 0.004 | Tubastatin A 0.007 | [1] -0.107 | defactinib -0.032 | rucaparib -0.013 | [2] -0.054 | encorafenib -0.023 | [3] 0.009

RACGAP1 (UniProt Q9H0H5)
inactive: saracatinib -0.096 | sotrastaurin -0.107 | alvocidib -0.13 | Tubastatin A -0.006 | [1] -0.152 | defactinib -0.109 | rucaparib 0.067 | [2] -0.048 | encorafenib 0.181 | [3] -0.109

RAB32 (UniProt Q13637)
inactive: saracatinib 0.147 | sotrastaurin 0.02 | alvocidib -0.051 | Tubastatin A -0.036 | [1] -0.025 | defactinib -0.013 | rucaparib 0 | [2] -0.011 | encorafenib 0.002 | [3] -0.028

RAB21 (UniProt Q9UL25)
inactive: saracatinib 0 | sotrastaurin 0.062 | alvocidib -0.032 | Tubastatin A -0.027 | [1] -0.011 | defactinib -0.01 | rucaparib -0.023 | [2] -0.024 | encorafenib -0.012 | [3] 0.003

Quoted from above (2 entries):
RACGAP1 (UniProt Q9H0H5)
inactive: saracatinib -0.096 | sotrastaurin -0.107 | alvocidib -0.13 | Tubastatin A -0.006 | [1] -0.152 | defactinib -0.109 | rucaparib 0.067 | [2] -0.048 | encorafenib 0.181 | [3] -0.109

RAB32 (UniProt Q13637)
inactive: saracatinib 0.147 | sotrastaurin 0.02 | alvocidib -0.051 | Tubastatin A -0.036 | [1] -0.025 | defactinib -0.013 | rucaparib 0 | [2] -0.011 | encorafenib 0.002 | [3] -0.028

The list goes on.

RAB5A (UniProt P20339)
inactive: saracatinib 0.105 | sotrastaurin -0.067 | alvocidib -0.014 | Tubastatin A -0.007 | [1] 0.016 | defactinib -0.053 | rucaparib -0.061 | [2] -0.037 | encorafenib -0.012 | [3] -0.017

RAB22A (UniProt Q9UL26)
inactive: saracatinib 0.032 | sotrastaurin 0.022 | alvocidib 0.012 | Tubastatin A -0.004 | [1] -0.052 | defactinib 0.028 | rucaparib 0 | [2] -0.047 | encorafenib -0.053 | [3] -0.002

RAB12, A0A3B3ITT1
inactive: saracatinib 0.047 | sotrastaurin 0.104 | alvocidib -0.058 | Tubastatin A -0.025 | [1] -0.092 | defactinib -0.007 | rucaparib 0 | [2] 0.009 | encorafenib 0.001 | [3] 0.015

RAB24 (UniProt Q969Q5)
inactive: saracatinib 0.063 | sotrastaurin 0.001 | alvocidib 0.054 | Tubastatin A -0.011 | [1] -0.039 | defactinib 0.015 | rucaparib -0.103 | [2] -0.032 | encorafenib 0.032 | [3] -0.002

RACK1 (UniProt P63244)
inactive: saracatinib 0.065 | sotrastaurin 0.01 | alvocidib 0.004 | Tubastatin A 0.012 | [1] 0.052 | defactinib 0.022 | rucaparib 0.024 | [2] 0.023 | encorafenib -0.014 | [3] -0.03

RAD1 (UniProt O60671)
inactive: saracatinib 0.073 | sotrastaurin -0.036 | alvocidib -0.001 | Tubastatin A -0.079 | [1] 0 | defactinib -0.025 | rucaparib 0.065 | [2] -0.055 | encorafenib -0.018 | [3] -0.025

RAB6B (UniProt Q9NRW1)
inactive: saracatinib 0.033 | sotrastaurin -0.118 | alvocidib -0.055 | Tubastatin A -0.02 | [1] 0.027 | defactinib -0.034 | rucaparib 0.014 | [2] -0.014 | encorafenib -0.019 | [3] -0.032

RBBP4 (UniProt Q09028)
inactive: saracatinib -0.063 | sotrastaurin 0.051 | alvocidib 0.033 | Tubastatin A 0.013 | [1] -0.035 | defactinib 0.015 | rucaparib -0.029 | [2] -0.056 | encorafenib 0.024 | [3] -0.01

RBFOX2 isoform 8 (UniProt O43251)
inactive: saracatinib 0.07 | sotrastaurin -0.248 | alvocidib 0.012 | Tubastatin A -0.011 | [1] -0.098 | defactinib -0.024 | rucaparib 0.04 | [2] 0.015 | encorafenib 0.009 | [3] 0.018

RASSF5 (UniProt Q8WWW0)
inactive: saracatinib -0.075 | sotrastaurin -0.041 | alvocidib 0.035 | Tubastatin A 0.014 | [1] 0.042 | defactinib 0 | rucaparib 0.125 | [2] -0.022 | encorafenib -0.002 | [3] 0.064

RALB isoform 2 (UniProt P11234)
inactive: saracatinib 0.022 | sotrastaurin 0.057 | alvocidib -0.037 | Tubastatin A -0.037 | [1] -0.025 | defactinib -0.076 | rucaparib -0.013 | [2] 0.008 | encorafenib -0.015 | [3] -0.014

RAD51C (UniProt O43502)
inactive: saracatinib -0.008 | sotrastaurin 0.009 | alvocidib -0.019 | Tubastatin A 0.021 | [1] -0.007 | defactinib -0.017 | rucaparib -0.013 | [2] -0.036 | encorafenib 0.002 | [3] 0.024
